Percent effect of library compounds

From ChEMBL document CHEMBL3988442, “University of Dundee, Small-Polar-MMV Screening Library” (2021).

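Growth of Mycobacterium tuberculosis over 3 days (7H9 medium with glucose and tyloxapol); the read-out is not stated. Concentration: 50 µM. The record gives no direction; compounds that gave an IC50 in retests scored well above the rest, so higher reads as more growth inhibition. Size under these conditions: about 69,000 compounds, about 760 of them at 50% or above in at least one test.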

Each number is a percent effect as filed. The record does not define 0% and 100%; most values in the screen are far below 50% and negative numbers occur (in some assays of this library far below -100). The compounds are a random part of those screened. Two or more numbers in one place are separate tests of the same structure; such repeats can differ widely.

| structure | Percent Effect |
|---|---|
| `COc1cccc(-c2cc(C(=O)NCCCn3nc(C)cc3C)[nH]n2)c1` | 52.33 |
| `Cc1c(CNCc2nn(-c3ccccc3)c3c2CCC3)cc(C#N)n1C` | 35.28 |
| `O=C(Cc1ccc(F)cc1)N1CCCCC1c1ccn2ccnc2n1` (stereo not shown) | 26.79 |
| `Cc1c(COC(C)C)cccc1NC(=O)N1CCCC(CO)C1` (stereo not shown) | -7.879 |
| `Cc1cc(N(C)C)nc(N2CCCC2c2cc(C)on2)n1` (stereo not shown) | 0.9892 |
| `Cc1ccc(-c2nc(CNC3CCc4ncnn4C3)co2)cc1` (stereo not shown) | 37.31 |
| `Cc1nc(-c2ccc(Cl)s2)sc1C(=O)O` | 14.84 & -8.411 |
| `[H][C@@]12C[C@H](C(=O)NCc3ccco3)CN(C(=O)c3ccco3)[C@]1([H])CCO2` | -9.578 |
| `COc1ccc(OCCN2CCCN(Cc3noc(C)n3)CC2)cc1` | -26.66 |
| `CC(C)CCc1n[nH]c(C(=O)O)c1I` | 19.14 & 7.474 |
| `CC1CCC(O)(Cn2ncnc2-c2cccc(C#N)c2)CC1` (stereo not shown) | 13.5 & 16.3 |
| `Cc1ccc(CN2C[C@@H](c3ccccc3)[C@@]3(CCNC3=O)C2)o1` | 12.24 & -14.84 |
| `CN1CCN2CCN(C(=O)c3cc4ncc(CCO)cn4n3)CC2C1` (stereo not shown) | 2.911 & 7.066 |
| `Cn1cc(C2CC3(CCN(C(=O)c4ccsc4)CC3)NC2=O)cn1` (stereo not shown) | -1.856 & -6.875 |
| `c1cnn(CC2CCCCN2c2ncnc3sccc23)c1` (stereo not shown) | -12.06 |
| `CC(NC(=O)c1ccoc1)c1ccc2c(c1)CCC(=O)N2` (stereo not shown) | -4.628 |
| `Cc1ccc(S(=O)(=O)Nc2cnn(C3CCOCC3)c2)cc1C` | 19.15 |
| `Cn1cncc1CN1CCC2(CCCN2c2ncccn2)CC1.O=C(O)C(F)(F)F` | -12.34 & -25.56 |
| `[H][C@]12CCN(Cc3ccco3)[C@@]1([H])CC[C@H](COCC1CCOCC1)O2` | 7.845 |
| `Cc1cnc(C(=O)N2CCC3(CCN3Cc3ccc(F)cc3)C2)cn1.O=C(O)C(F)(F)F` (stereo not shown) | -4.638 |
| `Cc1cc(C)n(C2CN(C(=O)CN3C(=O)CSc4ccccc43)C2)n1` | 23.1 |
| `CNC(=O)CN1C(=O)CN(C(=O)COC)CCC(OC)c2ccccc21` (stereo not shown) | -21.58 |
| `Cl.NCC(=O)N1CCCC1c1n[nH]cc1-c1ccccc1F` (stereo not shown) | 33.25 |
| `Cc1csc(N2CCN(C(=O)Cc3cccs3)CC2)n1` | -12.96 |
| `CCc1nnc2n1CCN(CC(=O)Nc1sccc1C#N)C2` | 0.4331 |
| `Cc1cccc(Nc2nccnc2C2CCCN2CC(=O)N(C)C)n1` (stereo not shown) | -19.18 |
| `[H][C@]12CCN(c3ncc(CC)cn3)C[C@@]1([H])OCCN(C(C)=O)C2` | 6.701 & -10.04 |
| `COc1ccc(C2CCCN2C(=O)c2cc3c([nH]c2=O)CCC3)cc1` (stereo not shown) | -4.477 |
| `Cc1noc(Cl)c1CCC(=O)N1CCCCC1Cn1cccn1` (stereo not shown) | -1.621 & 2.105 |
| `OCC1CCCN(c2ncnc3c2Cc2ccccc2OC3)C1` (stereo not shown) | 2.184 & 7.088 |
| `Cc1cnn(C2CN(Cc3ccc4c(c3)OCCO4)C2)c1` | -17.95 |
| `CC1CCC(N2CCC(NS(=O)(=O)CCCF)CC2)CC1` (stereo not shown) | 10.79 & 13.69 |
| `CSCC[C@@H](CO)Nc1nc(-c2ccccn2)nc2c1c(C)nn2C` | 21.21 & 3.171 |
| `COCC1CN(C(=O)COc2ccc(C)cc2)Cc2cn(C)nc21.O=C(O)C(F)(F)F` (stereo not shown) | 17.95 & 1.652 |
| `Cc1nocc1C(=O)N1CCCC2(CCN(c3ccsc3)C2=O)C1` (stereo not shown) | 8.186 & 3.641 |
| `CC[C@H]1N(C)CCC[C@]12CCC(=O)N2Cc1ccncc1.O=C(O)C(F)(F)F.O=C(O)C(F)(F)F` | 13.21 |
| `Cc1cc(C2CCCN2Cc2cc(=O)n(C)c(=O)n2C)no1` (stereo not shown) | 12.62 |
| `OC1(CNCc2csc(-c3ncccn3)n2)CCCNC1` (stereo not shown) | 12.89 |
| `[H][C@@]12COC[C@]1(COC)CN(C(=O)c1ccc(F)cc1C)C2` | -2.564 & -54.26 |
| `O=C(N[C@@H]1CCN(C(=O)C2CCOCC2)C[C@H]1O)c1ccccn1` | 7.123 |
| `CC(Cc1ccccc1Cl)NC(=O)Nc1cnn(CC(N)=O)c1` (stereo not shown) | -17.71 |
| `COc1ccc(-n2nc(C)c(C(C)=O)c2C)cc1CO` | -31.11 |
| `Nc1ncccc1CN1C[C@@H](C(=O)O)[C@H](c2cccc(F)c2)C1` | 6.933 |
| `CN(C)CCN1CCOCC2(CCCN(C(=O)c3ccccn3)C2)C1.O=C(O)C(F)(F)F.O=C(O)C(F)(F)F` (stereo not shown) | -3.02 & -8.186 |
| `O=C(O)C(F)(F)F.[H][C@@]12CN(C(=O)c3ccco3)C[C@]1([H])C(=O)N(Cc1csc(C)n1)C2` | -14.57 |
| `N#Cc1ccc(CN2CCCCC2Cn2cncn2)c(F)c1` (stereo not shown) | -44.71 |
| `CN(C)C1CCCN(C(=O)NCCNC(=O)C2CCCC2)C1` (stereo not shown) | 5.496 |
| `Cc1nc(N2CCN(C)CC2)ncc1C(=O)N1CCCCCC1` | 2.662 |
| `Cc1nn(C)c2nc(NC3CCNCC3)sc12` | 4.428 & -20.64 |
| `O=C(O)C(F)(F)F.O=C(O)C(F)(F)F.[H][C@@]12COC[C@]1(C(=O)NCCc1cccs1)CN(Cc1ccccn1)C2` | -24.26 |
| `CCc1nc(C(=O)N2CCCC2)nn1-c1ccccc1Cl` | 2.193 |
| `COCCCN1CCN([C@@H]2c3ccccc3C3(CCNCC3)[C@H]2O)CC1` | 19.09 |
| `c1ccc2c(N3CCOCC3)cnnc2c1` | 17.25 |
| `CCOC(=O)N1CCN(C(=O)CCn2cccc2)CC1` | 10.81 |
| `CN1CCN(Cc2cn3c(n2)CN(C(=O)c2ccco2)CC3)CC1` | -4.243 & 6.757 |
| `[H][C@@]12OCCN(C(=O)c3ccc(OC)c(F)c3)[C@@]1([H])CC[C@H]2OCC1CC1` | 8.317 & 13.77 |
| `COc1ccc(OCCN2CCOCS2(=O)=O)cc1` | -0.9478 |
| `COc1ncccc1C(=O)N1CCCC(n2ccnc2)C1` (stereo not shown) | 23.29 |
| `O=C(O)c1cccnc1CN1CCCC1CCc1ccccc1` (stereo not shown) | -6.716 & -2.592 |
| `Cc1nc2c(c(N3CCC(CCn4cccn4)CC3)n1)CCNCC2` | 79.71 |
| `CCCc1ncc(CNC2(c3ccc(Cl)cc3)CC2)cn1` | 17.32 |
| `Cc1ccc(C(=O)NCC(O)c2cnn(C)c2)c(Br)c1` (stereo not shown) | 11.37 |
| `COC(=O)C(c1ccccc1)N(C)C(=O)c1ccnc(C)n1` (stereo not shown) | 11.08 |
| `O=C(c1cccnc1-c1ccc2c(c1)OCCO2)N1CCCC1` | 6.011 |
| `COc1ccc(C(C)N2CCC(OC)CC2)cc1Cl` (stereo not shown) | -25.69 |
| `COc1ccc(C(=O)NCCCOC(C)c2ccccc2)c(OC)c1` (stereo not shown) | 48.46 |
| `COCCn1cc(C(=O)N2CCCC2c2ccncc2)c2ccccc21` (stereo not shown) | 10.89 |
| `[H][C@@]12CCC(=O)N(CCc3c[nH]cn3)[C@]1([H])CCN(Cc1cccnc1)C2` | -2.031 |
| `Cn1cnnc1S(=O)(=O)C1CCN(C(=O)c2cccs2)CC1` | 20.37 |
| `O=C(O)C(F)(F)F.O=C(O)C(F)(F)F.[H][C@@]12CN(Cc3cccs3)C[C@]1([H])OCCN2CC1CCCO1` (stereo partly shown) | -12.17 |
| `Cc1cc(=O)[nH]c(-n2nc(C)c(CCC(=O)NCC(C)C)c2C)n1` | 3.881 |
| `O=C1CCCN1CCc1noc(-c2ccc3[nH]cnc3c2)n1` | -4.707 |
| `CC(C)CN(CC(F)(F)F)S(=O)(=O)c1cc(C(N)=O)n(C)c1` | 9.21 |
| `CCc1sc(C(=O)Nc2cnn(CCN(C)C)c2)cc1C` | 28.43 & 2.893 |
| `OC(COCc1ccc(Cl)cc1)CN1CC(n2cccn2)C1` (stereo not shown) | -0.8795 |
| `CS(=O)(=O)N1CCC2(CC1)CC(OCC1CCOCC1)CO2` (stereo not shown) | 6.314 |
| `Cc1cc2occ(CC(=O)N3CCC(O)(CN(C)C)C3)c2cc1Cl` (stereo not shown) | -12.24 |
| `CCOc1cc(CN[C@@H]2COC[C@H]2Cc2cc(C)no2)ccc1O.O=C(O)CC(O)(CC(=O)O)C(=O)O` | 14.38 |
| `CN(C)C(=O)C1CCN(Cn2ccc(-c3ccc(F)cc3)n2)CC1` | -0.9154 & 4.333 |
| `[H][C@]12CCN(C(=O)N3CCOCC3)C[C@@]1([H])OCCN(S(C)(=O)=O)C2` | 18.22 |
| `Cc1cc(O)nc(C2CCCN(Cc3ccncc3)C2)n1` (stereo not shown) | 16.25 |
| `Cn1nnn(-c2ccc(NS(=O)(=O)c3ccc(Br)cc3)cc2)c1=O` | 10.24 & -6.677 |
| `CN(Cc1c(F)cccc1Cl)C(=O)CN(C)C1CCc2ccccc21` (stereo not shown) | -0.1692 |
| `COCc1nc(C(=O)N2CCCCC2Cn2cccn2)cs1` (stereo not shown) | 15.99 |
| `Cl.c1cc(NCc2ccncc2)nc(C2CCCN2)c1` (stereo not shown) | 1.687 |

Once more, the final 4:

| structure | Percent Effect |
|---|---|
| `Cn1nnn(-c2ccc(NS(=O)(=O)c3ccc(Br)cc3)cc2)c1=O` | 10.24 & -6.677 |
| `CN(Cc1c(F)cccc1Cl)C(=O)CN(C)C1CCc2ccccc21` (stereo not shown) | -0.1692 |
| `COCc1nc(C(=O)N2CCCCC2Cn2cccn2)cs1` (stereo not shown) | 15.99 |
| `Cl.c1cc(NCc2ccncc2)nc(C2CCCN2)c1` (stereo not shown) | 1.687 |